Reference: article PMC9091212
Results are given in words; binding and its absence hold for the method and conditions named. In cells and extracts the contact can be indirect. Some binding calls cover weakened binding; strength is not graded here. Blank lines part the entries; values can stand above or below the substance they belong to.

Sequences of proteins named here, by UniProt entry; tags and fusion partners are left off. A change or cut given only in a name is not applied to a line headed by its entry. Residues count along the entry.
UniProt Q05397: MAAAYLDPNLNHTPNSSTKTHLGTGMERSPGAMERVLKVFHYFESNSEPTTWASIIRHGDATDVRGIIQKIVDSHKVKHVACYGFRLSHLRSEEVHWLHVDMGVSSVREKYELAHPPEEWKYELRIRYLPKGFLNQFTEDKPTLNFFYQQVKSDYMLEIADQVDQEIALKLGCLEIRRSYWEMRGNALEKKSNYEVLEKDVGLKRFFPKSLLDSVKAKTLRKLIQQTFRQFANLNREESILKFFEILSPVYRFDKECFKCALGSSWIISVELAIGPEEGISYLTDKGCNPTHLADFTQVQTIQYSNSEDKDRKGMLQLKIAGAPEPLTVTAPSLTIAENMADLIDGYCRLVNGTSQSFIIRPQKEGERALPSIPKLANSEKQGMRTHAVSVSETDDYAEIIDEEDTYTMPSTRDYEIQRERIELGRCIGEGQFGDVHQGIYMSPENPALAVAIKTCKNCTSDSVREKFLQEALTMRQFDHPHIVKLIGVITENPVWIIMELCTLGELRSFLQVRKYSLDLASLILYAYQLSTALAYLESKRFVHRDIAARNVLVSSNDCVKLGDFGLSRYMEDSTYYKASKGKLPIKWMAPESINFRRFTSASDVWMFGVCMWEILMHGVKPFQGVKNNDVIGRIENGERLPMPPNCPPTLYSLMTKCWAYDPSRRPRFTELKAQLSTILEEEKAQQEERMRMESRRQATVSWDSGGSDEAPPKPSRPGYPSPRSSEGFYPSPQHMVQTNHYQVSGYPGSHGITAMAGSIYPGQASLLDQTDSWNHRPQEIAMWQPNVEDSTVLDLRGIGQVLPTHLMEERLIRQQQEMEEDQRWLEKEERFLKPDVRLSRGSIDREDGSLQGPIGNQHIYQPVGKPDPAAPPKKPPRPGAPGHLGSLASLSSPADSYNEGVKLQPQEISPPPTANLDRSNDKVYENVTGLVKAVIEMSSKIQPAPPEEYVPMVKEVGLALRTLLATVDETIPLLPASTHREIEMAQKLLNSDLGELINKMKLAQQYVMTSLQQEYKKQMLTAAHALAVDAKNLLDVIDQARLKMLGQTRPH
UniProt P05556: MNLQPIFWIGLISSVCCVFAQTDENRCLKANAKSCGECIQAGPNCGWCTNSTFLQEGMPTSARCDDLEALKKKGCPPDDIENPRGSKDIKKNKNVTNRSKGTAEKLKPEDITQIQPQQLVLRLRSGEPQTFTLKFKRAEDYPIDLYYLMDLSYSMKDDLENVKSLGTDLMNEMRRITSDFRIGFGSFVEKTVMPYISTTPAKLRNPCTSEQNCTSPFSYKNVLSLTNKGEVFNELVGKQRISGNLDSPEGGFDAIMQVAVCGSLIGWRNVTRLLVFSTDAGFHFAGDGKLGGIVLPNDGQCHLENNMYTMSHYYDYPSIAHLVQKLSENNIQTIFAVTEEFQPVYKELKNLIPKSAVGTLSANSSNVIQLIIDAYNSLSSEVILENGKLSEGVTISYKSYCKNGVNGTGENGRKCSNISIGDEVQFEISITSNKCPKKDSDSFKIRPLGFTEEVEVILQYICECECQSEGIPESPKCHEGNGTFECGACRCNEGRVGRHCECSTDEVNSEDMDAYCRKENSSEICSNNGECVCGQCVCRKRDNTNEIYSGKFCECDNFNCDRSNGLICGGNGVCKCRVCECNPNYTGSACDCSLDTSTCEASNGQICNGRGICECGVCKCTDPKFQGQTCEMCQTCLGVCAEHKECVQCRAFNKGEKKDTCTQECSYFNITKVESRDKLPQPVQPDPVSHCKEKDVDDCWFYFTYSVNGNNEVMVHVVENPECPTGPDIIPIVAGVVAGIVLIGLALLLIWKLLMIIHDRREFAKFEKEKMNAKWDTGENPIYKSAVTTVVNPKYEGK
UniProt P37173, residues 23-567: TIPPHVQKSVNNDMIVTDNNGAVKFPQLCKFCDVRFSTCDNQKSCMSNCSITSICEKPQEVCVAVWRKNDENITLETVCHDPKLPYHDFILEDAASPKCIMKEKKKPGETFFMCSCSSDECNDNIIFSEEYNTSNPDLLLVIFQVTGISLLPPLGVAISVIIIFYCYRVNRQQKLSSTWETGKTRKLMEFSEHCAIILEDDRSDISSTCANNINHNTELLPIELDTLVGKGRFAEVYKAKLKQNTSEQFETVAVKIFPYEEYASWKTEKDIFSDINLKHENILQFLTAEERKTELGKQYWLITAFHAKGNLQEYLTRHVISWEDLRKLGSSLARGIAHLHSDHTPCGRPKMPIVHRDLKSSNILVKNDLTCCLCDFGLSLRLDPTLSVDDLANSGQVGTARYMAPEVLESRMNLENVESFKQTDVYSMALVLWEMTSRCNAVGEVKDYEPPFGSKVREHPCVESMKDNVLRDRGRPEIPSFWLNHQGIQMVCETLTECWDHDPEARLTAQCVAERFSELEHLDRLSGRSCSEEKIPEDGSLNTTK
UniProt Q15796: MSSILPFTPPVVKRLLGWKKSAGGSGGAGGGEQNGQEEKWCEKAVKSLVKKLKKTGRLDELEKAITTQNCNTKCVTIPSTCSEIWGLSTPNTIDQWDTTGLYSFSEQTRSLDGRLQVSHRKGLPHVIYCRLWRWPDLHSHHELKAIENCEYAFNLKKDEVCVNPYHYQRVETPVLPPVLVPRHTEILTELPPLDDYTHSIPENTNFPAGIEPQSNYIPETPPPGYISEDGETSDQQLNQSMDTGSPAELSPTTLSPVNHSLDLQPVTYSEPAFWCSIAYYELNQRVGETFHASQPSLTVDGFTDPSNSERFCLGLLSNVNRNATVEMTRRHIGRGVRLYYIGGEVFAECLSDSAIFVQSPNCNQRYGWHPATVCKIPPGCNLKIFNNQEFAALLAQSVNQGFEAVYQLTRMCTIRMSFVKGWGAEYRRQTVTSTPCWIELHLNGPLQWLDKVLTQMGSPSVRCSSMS

Tests used:
[1] = molecular target: T1, TGFβ receptor type I (TGFβRI) (human (endogenous in MDA-MB-231)) (UniProt P36897); assay: co-IP; IP of endogenous integrin β1 with western blotting of TGFβRI, and reverse IP of TGFβRI with western blotting of integrin β1, from MDA-MB-231 lysates; also from untreated cells (without TGFβ) and with FAK inhibitor treatment
T1 sequence: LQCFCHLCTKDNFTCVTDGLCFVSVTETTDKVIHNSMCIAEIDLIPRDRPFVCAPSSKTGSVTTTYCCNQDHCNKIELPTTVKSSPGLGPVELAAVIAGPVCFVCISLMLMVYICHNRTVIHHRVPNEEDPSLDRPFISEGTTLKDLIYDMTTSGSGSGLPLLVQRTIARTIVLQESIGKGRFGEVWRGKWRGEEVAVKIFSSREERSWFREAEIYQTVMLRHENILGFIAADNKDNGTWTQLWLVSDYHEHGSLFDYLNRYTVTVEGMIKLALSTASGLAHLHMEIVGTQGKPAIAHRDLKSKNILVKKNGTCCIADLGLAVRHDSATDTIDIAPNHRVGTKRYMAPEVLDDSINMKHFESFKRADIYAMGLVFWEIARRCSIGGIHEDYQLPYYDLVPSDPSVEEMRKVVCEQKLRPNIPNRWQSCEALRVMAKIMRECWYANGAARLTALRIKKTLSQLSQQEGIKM

[2] = molecular target: focal adhesion kinase (FAK) (human (endogenous in MDA-MB-231)) (UniProt Q05397); assay: co-IP; IP of endogenous FAK from lysates of MDA-MB-231 cells treated with vehicle or TGFβ (5 ng/mL, 2 h), or with vehicle or the FAKi VS-4718 (1 μM, 24 h); western blotting for FAK, TGFβRI and TGFβRII; lysis buffer 1% Triton X-100, 0.5% NP-40, 150 mM NaCl, 10 mM Tris pH 7.4; protein G agarose
[3] = molecular target: focal adhesion kinase (FAK) (human (endogenous in MDA-MB-231)) (UniProt Q05397); assay: co-IP; IP of FAK followed by western blotting of Smad2 (Supplementary Fig. 4c); cells and treatment not given

binding [1]: binds
Substance: integrin β1 (from UniProt P05556 21-798) (receptor)

binding [2]: no binding
Substance: TGFβ receptor type II (TGFβRII) (from UniProt P37173 23-567)

binding [3]: no binding
Substance: Smad2 (from UniProt Q15796 1-467)
